# This is one part of the list. Most entries show no effect beyond the scatter of the controls.
# Chains of the proteins cited; added tags and fusions are not shown. Lines headed by an entry give the natural chain unless they say otherwise; changes in a name come on top.
# UniProt Q6DFW4: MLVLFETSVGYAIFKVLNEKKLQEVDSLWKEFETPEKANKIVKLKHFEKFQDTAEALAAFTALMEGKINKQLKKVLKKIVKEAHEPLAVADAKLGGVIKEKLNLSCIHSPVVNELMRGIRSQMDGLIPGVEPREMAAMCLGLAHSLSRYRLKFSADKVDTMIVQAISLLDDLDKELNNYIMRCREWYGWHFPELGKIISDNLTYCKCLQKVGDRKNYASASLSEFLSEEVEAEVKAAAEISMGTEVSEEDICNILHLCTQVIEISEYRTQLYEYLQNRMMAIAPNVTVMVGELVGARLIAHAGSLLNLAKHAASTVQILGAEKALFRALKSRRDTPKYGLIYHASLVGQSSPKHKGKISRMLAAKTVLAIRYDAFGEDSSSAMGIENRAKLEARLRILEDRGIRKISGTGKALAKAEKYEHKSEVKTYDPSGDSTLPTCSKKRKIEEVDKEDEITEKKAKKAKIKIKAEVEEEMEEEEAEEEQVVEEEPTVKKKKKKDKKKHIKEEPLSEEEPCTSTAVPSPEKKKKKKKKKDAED
# UniProt Q6P0X2: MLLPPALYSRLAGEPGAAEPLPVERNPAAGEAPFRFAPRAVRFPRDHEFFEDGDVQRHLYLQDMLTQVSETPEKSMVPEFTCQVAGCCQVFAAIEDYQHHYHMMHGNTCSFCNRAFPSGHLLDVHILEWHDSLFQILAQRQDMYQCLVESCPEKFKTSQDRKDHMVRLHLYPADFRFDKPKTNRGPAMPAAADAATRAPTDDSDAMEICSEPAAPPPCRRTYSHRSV
# UniProt Q6NXK2: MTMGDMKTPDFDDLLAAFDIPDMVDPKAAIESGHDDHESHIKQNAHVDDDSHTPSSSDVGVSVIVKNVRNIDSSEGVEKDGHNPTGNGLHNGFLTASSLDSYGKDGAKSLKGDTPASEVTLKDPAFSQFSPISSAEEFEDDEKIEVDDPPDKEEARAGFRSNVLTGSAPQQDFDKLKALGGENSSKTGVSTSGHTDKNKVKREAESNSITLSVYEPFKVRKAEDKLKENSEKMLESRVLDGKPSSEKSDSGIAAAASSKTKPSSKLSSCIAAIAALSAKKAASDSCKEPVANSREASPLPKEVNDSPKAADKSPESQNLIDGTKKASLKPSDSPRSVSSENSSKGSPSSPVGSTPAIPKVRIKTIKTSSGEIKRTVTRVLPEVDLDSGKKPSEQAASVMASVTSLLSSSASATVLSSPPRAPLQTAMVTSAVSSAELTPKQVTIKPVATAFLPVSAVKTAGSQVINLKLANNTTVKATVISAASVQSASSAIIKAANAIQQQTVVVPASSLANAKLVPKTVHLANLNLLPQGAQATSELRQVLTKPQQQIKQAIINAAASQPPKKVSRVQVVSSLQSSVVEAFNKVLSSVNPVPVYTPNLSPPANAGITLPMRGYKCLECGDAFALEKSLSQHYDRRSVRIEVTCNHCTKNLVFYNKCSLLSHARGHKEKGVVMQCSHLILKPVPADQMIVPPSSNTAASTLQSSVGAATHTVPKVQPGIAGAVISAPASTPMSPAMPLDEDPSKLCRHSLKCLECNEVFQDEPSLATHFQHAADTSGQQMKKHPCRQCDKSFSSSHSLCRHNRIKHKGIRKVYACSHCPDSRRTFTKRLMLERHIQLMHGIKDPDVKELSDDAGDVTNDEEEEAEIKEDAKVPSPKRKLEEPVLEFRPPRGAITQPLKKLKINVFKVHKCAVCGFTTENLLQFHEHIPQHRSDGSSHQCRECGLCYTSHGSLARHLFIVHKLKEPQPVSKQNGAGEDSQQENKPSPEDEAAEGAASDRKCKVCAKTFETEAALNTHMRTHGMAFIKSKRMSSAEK
# UniProt Q6SKR2: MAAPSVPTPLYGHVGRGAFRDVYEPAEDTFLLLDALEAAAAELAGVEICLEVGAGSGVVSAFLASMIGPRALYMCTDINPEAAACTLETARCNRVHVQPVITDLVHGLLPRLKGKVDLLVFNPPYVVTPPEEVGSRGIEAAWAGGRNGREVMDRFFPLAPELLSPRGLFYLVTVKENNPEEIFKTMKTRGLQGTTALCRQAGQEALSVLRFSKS
# UniProt Q6PHS6: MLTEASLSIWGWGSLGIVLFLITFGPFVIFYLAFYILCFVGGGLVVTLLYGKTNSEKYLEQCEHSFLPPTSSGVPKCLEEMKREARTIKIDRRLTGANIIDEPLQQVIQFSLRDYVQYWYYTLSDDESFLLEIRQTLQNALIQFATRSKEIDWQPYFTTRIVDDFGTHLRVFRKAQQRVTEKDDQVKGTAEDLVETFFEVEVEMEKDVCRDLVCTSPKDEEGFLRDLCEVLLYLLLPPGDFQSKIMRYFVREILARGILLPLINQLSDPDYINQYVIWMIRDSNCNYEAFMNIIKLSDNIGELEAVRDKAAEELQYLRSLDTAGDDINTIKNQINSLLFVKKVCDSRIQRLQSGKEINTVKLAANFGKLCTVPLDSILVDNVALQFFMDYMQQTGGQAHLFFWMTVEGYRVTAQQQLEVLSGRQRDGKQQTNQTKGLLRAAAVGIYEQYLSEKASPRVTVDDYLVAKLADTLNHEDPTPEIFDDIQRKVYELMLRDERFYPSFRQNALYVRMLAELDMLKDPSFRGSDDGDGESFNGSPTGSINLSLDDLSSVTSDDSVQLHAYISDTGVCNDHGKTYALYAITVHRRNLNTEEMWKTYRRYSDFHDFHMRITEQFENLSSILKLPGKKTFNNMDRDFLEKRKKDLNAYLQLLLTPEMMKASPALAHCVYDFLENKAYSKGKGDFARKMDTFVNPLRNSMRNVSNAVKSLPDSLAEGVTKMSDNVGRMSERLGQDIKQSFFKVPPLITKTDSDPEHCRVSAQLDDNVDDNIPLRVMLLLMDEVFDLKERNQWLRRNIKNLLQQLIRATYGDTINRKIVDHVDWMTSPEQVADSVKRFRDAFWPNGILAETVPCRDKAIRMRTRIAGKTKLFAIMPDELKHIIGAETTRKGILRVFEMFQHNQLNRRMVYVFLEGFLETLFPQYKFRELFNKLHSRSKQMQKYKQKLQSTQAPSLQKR
# UniProt Q6NXY1: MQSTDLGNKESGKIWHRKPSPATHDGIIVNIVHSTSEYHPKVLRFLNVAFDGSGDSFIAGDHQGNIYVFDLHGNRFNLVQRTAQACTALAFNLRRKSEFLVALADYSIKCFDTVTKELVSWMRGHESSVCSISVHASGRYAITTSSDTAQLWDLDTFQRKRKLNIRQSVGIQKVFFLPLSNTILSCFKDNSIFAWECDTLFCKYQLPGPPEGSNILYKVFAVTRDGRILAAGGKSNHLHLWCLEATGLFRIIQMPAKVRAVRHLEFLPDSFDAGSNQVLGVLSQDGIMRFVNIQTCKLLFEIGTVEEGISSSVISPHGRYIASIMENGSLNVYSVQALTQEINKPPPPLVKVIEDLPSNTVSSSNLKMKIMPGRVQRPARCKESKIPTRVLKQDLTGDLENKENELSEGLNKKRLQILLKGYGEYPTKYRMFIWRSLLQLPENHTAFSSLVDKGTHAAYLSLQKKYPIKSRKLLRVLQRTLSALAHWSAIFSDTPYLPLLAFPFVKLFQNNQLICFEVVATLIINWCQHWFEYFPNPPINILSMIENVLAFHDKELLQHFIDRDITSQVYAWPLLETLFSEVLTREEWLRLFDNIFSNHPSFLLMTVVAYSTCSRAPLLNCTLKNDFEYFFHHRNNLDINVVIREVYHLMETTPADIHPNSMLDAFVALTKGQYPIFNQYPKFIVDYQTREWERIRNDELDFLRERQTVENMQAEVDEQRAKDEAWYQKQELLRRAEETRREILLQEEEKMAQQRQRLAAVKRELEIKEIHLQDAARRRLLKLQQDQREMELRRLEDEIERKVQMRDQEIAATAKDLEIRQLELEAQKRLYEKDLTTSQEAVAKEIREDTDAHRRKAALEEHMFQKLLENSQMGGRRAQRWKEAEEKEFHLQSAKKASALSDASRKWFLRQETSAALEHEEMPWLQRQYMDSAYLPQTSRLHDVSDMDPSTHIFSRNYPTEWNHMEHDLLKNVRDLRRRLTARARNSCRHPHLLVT
# UniProt Q6PE01: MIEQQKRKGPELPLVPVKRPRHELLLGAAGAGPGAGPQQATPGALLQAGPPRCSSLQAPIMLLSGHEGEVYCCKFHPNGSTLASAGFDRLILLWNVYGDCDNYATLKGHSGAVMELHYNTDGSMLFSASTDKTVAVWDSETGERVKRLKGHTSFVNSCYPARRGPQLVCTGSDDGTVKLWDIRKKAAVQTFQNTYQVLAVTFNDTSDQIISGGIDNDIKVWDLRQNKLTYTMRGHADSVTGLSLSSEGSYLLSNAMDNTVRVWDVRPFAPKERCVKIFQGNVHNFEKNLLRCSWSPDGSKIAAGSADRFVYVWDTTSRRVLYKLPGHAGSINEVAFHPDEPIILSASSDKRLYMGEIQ
# UniProt Q6PDL0, whole entry: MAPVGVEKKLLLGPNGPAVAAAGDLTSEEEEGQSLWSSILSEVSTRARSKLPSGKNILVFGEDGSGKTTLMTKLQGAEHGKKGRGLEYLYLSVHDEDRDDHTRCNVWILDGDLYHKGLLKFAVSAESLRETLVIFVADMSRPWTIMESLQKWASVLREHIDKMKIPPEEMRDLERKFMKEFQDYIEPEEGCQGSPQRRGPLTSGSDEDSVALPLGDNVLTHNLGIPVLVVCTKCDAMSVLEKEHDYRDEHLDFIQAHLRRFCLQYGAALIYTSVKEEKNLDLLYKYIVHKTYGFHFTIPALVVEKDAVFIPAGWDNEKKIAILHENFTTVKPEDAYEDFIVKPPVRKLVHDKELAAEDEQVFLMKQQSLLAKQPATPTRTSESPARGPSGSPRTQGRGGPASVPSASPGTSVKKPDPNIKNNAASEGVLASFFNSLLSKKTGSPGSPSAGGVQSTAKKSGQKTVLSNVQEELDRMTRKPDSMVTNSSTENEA
# UniProt Q6PAC3: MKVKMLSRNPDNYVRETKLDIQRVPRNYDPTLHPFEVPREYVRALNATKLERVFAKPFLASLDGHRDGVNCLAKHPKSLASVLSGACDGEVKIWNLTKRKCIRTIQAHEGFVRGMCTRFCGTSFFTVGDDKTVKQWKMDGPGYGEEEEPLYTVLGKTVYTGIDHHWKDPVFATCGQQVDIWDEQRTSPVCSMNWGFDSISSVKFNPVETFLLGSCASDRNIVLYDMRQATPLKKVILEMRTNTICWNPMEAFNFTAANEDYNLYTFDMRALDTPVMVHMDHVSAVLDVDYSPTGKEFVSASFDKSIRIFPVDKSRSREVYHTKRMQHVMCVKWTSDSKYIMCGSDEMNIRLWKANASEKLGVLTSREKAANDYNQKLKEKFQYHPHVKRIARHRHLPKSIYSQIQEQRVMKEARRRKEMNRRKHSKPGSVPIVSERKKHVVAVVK
# UniProt Q6P1G2: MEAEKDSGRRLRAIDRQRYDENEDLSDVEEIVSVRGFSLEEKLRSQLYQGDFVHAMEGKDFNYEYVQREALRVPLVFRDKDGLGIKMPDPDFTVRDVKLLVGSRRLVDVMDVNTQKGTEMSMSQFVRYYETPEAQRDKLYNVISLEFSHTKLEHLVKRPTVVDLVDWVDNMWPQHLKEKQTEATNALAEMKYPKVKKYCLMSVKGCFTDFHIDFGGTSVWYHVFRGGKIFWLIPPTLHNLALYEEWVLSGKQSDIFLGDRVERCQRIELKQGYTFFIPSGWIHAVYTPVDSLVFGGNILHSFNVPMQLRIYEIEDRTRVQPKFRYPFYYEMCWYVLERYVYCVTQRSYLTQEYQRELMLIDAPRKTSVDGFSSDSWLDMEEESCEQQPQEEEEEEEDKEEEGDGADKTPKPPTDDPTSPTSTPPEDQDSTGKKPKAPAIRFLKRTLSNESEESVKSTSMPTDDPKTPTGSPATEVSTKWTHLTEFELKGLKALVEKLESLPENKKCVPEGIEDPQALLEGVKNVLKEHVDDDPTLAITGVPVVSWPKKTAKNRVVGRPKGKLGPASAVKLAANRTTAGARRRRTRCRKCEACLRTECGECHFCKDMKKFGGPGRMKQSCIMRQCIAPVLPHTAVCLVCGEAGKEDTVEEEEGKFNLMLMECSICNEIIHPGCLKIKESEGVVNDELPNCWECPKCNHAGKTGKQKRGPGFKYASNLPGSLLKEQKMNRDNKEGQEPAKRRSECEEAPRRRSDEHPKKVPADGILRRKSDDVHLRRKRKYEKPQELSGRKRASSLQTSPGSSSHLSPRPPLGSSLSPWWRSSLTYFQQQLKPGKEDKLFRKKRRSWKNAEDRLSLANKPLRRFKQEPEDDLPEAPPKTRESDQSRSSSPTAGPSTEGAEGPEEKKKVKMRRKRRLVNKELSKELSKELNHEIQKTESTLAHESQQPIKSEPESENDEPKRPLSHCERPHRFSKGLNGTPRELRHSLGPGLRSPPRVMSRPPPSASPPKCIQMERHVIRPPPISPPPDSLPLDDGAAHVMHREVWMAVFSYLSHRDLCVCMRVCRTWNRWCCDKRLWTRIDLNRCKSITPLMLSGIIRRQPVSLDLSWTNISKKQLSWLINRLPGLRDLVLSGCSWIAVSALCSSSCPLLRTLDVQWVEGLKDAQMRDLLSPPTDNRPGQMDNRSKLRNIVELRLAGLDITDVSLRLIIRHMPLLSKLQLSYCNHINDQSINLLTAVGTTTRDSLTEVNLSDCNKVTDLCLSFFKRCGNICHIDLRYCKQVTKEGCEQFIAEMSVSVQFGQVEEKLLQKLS
# Compound: CN[C@@H]1C[C@H]2O[C@@](C)([C@@H]1OC)n1c3ccccc3c3c4c(c5c6ccccc6n2c5c31)C(=O)NC4 [staurosporine]
# Test: log2 fold change of tryptic peptide abundance, ligand vs vehicle (limited proteolysis) (log2 ratio); higher = more trypsin-susceptible (destabilized)
# Settings: ligand concentration: 20 uM; sample: mouse liver crude lysate; replicate design: treated separately
row,Target,log2 fold change
1,"UniProt Q6DFW4 (peptide sequence: KIVKEAHEPLAVADAK, peptide start residue: 78)",-0.436
2,"UniProt Q6P0X2 (peptide sequence: GPAMPAAADAATR, peptide start residue: 185)",0.0813
3,"UniProt Q69ZX8 (peptide sequence: VHNNHFHIR, peptide start residue: 37)",-0.79
4,"UniProt Q6NXK2 (peptide sequence: QVTIKPVATAFLPVSAVK, peptide start residue: 441)",-0.157
5,"UniProt Q6SKR2 (peptide sequence: GLFYLVTVK, peptide start residue: 167)",0.18
6,"UniProt Q6PHS6 (peptide sequence: ATYGDTINRK, peptide start residue: 807)",0.368
7,"UniProt Q6NXY1 (peptide sequence: ILAAGGK, peptide start residue: 228)",-0.217
8,"UniProt Q6PE01 (peptide sequence: KGPELPLVPVK, peptide start residue: 8)",0.265
9,"UniProt Q6P9R1 (peptide sequence: VQPFLPAWLAKPSCVKK, peptide start residue: 146)",-0.211
10,"UniProt Q6PDL0 (peptide sequence: DEHLDFIQAHLRR, peptide start residue: 248)",-0.434
11,"UniProt Q6PAC3 (peptide sequence: SIYSQIQEQR, peptide start residue: 399)",-0.232
12,"UniProt Q6P1G2 (peptide sequence: LVDVMDVNTQK, peptide start residue: 106)",0.204

# Looked up one by one from the entries so far, two records:
row,Target,log2 fold change
11,"UniProt Q6PAC3 (peptide sequence: SIYSQIQEQR, peptide start residue: 399)",-0.232
12,"UniProt Q6P1G2 (peptide sequence: LVDVMDVNTQK, peptide start residue: 106)",0.204

# — the supplement of paper PMC12819154, “High-throughput peptide-centric local stability assay extends protein–ligand identification to membrane proteins, tissues and bacteria” (Nature Structural & Molecular Biology, 2025)
